In US20140056951A1, “METHODS AND COMPOSITIONS FOR TREATING BIOFILMS” (PRESIDENT AND FELLOWS OF HARVARD COLLEGE, priority 2011, published 2014):
Some entries share one result that the patent states for a list of compounds. At least one compound was matched to its structure with a doubt left.

tested on: B. subtilis strain NCBI3610; test: Biofilm (pellicle) inhibition assay, B. subtilis in liquid biofilm-inducing medium; type: cell-based, Bacillus subtilis; details: B. subtilis pellicle formation
Experimental: Bacillus subtilis strains PY79, 3610 and their derivatives were grown in Luria-Bertani (LB) medium at 37° C. or MSgg medium (1) at 23° C. Solid media contained 1.5% Bacto agar. When appropriate, antibiotics were added at the following concentrations for growth of B. subtilis: 10 μg per ml of tetracycline, and 5 μg per ml of erythromycin, 500 μg per ml of spectinomycin.
B. subtilis strain NCBI3610 was grown at 22° C. in 12-well plates in liquid biofilm-inducing medium for 3 or 8 days. Conditioned medium (500 ml) from an 8-day-old culture was concentrated on the C-18 column and eluted step-wise with methanol. […]
Pellicle formation of strain NCBI 3610 was tested in the presence of the indicated concentrations of norspermidine (FIG. 1D) or spermidine (FIG. 1E).
To identify features of norspermidine important for its biofilm disassembly activity, we tested a library of polyamines in our biofilm inhibition assay (FIGS. 9A, 9B, 10 and Table 2).
The effect of polyamines on pellicle formation by B. subtilis was examined. B. subtilis wild-type cells were grown to a mid-logarithmic phase and diluted 1:1000 in biofilm media applied with each polyamine to the final concentration of 50 μM.
The effect of cyclic polyamines on biofilm formation by B. subtilis was examined. B. subtilis wild-type cells were grown to a mid-logarithmic phase and diluted 1:1000 in biofilm media (18A) or in a medium applied with cyclic compound 1,5,9-Triazacyclododecane to the final concentration of 50 μM (18B).

Structure (SMILES) | concentration above which inhibition of biofilm formation is observed
NCCCCCN [Molecule 19, pentane-1,5-diamine, reference compound] | above 2 mM

same assay, conditions: library of polyamines, structure-activity

Structure (SMILES) | biofilm-inhibitory activity against B. subtilis
CN(C)CCCN(C)CCCN(C)C [Molecule 7, N^1-(3-(dimethylamino)propyl)-N^1,N^3,N^3-trimethylpropane-1,3-diamine] | relatively inactive
CN(C)CCCNCCCN(C)C [Molecule 8, N^1-(3-(dimethylamino)propyl)-N^3, N^3-dimethylpropane-1,3-diamine] | relatively inactive
CN(CCCN)CCCN [Molecule 9, (3-aminopropyl)-N^1-methylpropane-1,3-diamine] | relatively inactive
NCCCOCCCN [Molecule 10, 3,3′-oxybis(propan-1-amine)] | relatively inactive
CCOC(=O)CCC(=O)CCC(=O)OCC [Molecule 11, Diethyl 4-oxoheptanedioate] | relatively inactive
NNC(=O)Cc1ccc(CC(=O)NN)[nH]1 [Molecule 15, 2,2′-(1H-pyrrole-2,5-diyl)di(acetohydrazide)] | only weakly active or inactive
CN(C)N(CCC(N)=O)CCC(N)=O [Molecule 16, 3,3′-(2,2-dimethylhydrazine-1,1-diyl)dipropanamide] | only weakly active or inactive
O=C(NCCCNCCCNC(=O)C(O)C(O)C(O)C(O)CO)C(O)C(O)C(O)C(O)CO (stereo not shown) [Molecule 17, N,N′-(azanediylbis(propane-3,1-diyl))bis(2,3,4,5,6-pentahydroxyhexanamide)] | only weakly active or inactive
OCCCNCCCO [Molecule 20, 3,3′-azanediylbis(propan-1-ol)] | relatively inactive
